PubChem BioAssay AID686937 – Drosophila RNAi Screening Center, 2013
Test: 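Knock-downs that reduce output of a secreted reporter enzyme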 (primary screen). Cell system: Drosophila S2 cells expressing secreted horseradish peroxidase. Reagents: long dsRNA against Drosophila genes. Timing: about 5.5 days (5 days dsRNA, then 12 h reporter induction). Treatment: reporter expression induced after 5 days of dsRNA, read 12 h later; inducer not stated. Detection: 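After 5 days of dsRNA and 12 h of reporter induction, medium peroxidase read by chemiluminescence and scored as per-plate z-score; higher values mean more reporter released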. Direction: z-score: higher = more reporter secreted into medium.
In all, the deposit lists about 23,000 reagents; shown is a random part of those that have a named target and a result. 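Reduced-secretion tags in replicate 1 do not always agree with the z-scores; no criterion for assigning the tags was given.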 Further read-outs or replicates are left out here. The record does not give: the amount of reagent.

What is on record for CG3511 [DRSC04382]?
z-score, replicate 1: 0.17

What did the screen give for Aptx [DRSC15768]?
z-score, replicate 1: 0.4

For CG12347 [DRSC14502], how do the results read?
z-score, replicate 1: 0.34

How did the screen score p47 [DRSC06046]?
z-score, replicate 1: -0.73

For Coop [DRSC06604], what does the deposit list?
z-score, replicate 1: -0.51

How did the screen score CG3430 [DRSC02713]?
z-score, replicate 1: 0.43

How did the screen score orion [DRSC18213]?
z-score, replicate 1: 0.32

With orion [DRSC18214], what does the deposit list?
z-score, replicate 1: 0.35

Which result is listed for CG5509 [DRSC15822]?
z-score, replicate 1: 0.49

With CG7906 [DRSC10928], what was measured?
z-score, replicate 1: 0.23

How did the screen score CG10433 [DRSC04068]?
z-score, replicate 1: 0.16

4 consecutive entries from above, quoted:
CG12347 [DRSC14502] — z-score, replicate 1 = 0.34
p47 [DRSC06046] — z-score, replicate 1 = -0.73
Coop [DRSC06604] — z-score, replicate 1 = -0.51
CG3430 [DRSC02713] — z-score, replicate 1 = 0.43

The listing continues.
What did the screen give for CG42544 [DRSC12451]?
z-score, replicate 1: -0.28

What is on record for insv [DRSC00579]?
z-score, replicate 1: 0.09

Which result is listed for Pp1-Y1 [DRSC20896]?
z-score, replicate 1: -1.52; phenotype, replicate 1: reduced secretion

How did the screen score ct [DRSC18757]?
z-score, replicate 1: 0.17

What did the screen give for Polr2K [DRSC05535]?
z-score, replicate 1: -4.23; phenotype, replicate 1: reduced secretion

What is on record for GstZ1 [DRSC16478]?
z-score, replicate 1: -0.23

With CG6553 [DRSC07002], what does the deposit list?
z-score, replicate 1: 0.34

What is on record for kek4 [DRSC03220]?
z-score, replicate 1: 0.26

With CG5151 [DRSC10487], how do the results read?
z-score, replicate 1: -0.71

What did the screen give for MAGE [DRSC12504]?
z-score, replicate 1: 0.1

Which result is listed for Acbp1 [DRSC03093]?
z-score, replicate 1: 0.17

With Cpsf6 [DRSC10781], what was measured?
z-score, replicate 1: 0.97

What did the screen give for CG14309 [DRSC14788]?
z-score, replicate 1: 0.37

With CG4404 [DRSC19897], how do the results read?
z-score, replicate 1: -0.56

With LManV [DRSC03223], what was measured?
z-score, replicate 1: 0.26

With MagR [DRSC20092], how do the results read?
z-score, replicate 1: -0.23
